Measured values reported in the supplement of paper PMC5949888.
Most values lie at the floor of the assay. Slopes are relative: functional sequences can read slightly below zero.

What follows are substances tested on Saccharomyces cerevisiae PS128 hsf1 delta, HSF1(1-493) fusion (assay: growth estimate (transactivation domain function in HSF1 fusion, heat-shock survival) (a.u. (slope of normalised read count over time)); higher = stronger growth at 37°C, i.e. more transactivation activity). Conditions: library: random library.

Substance | growth estimate
WAV | < -0.25
CCERRRTRLSVRAAGAYFPH | < -0.25
FMSPDVMENRRELRQGPERS | < -0.25
VELCGGWRPERA | < -0.25
RKVSEVWPIAELLW | < -0.25
GSSASRALNCYVSILYLSGT | < -0.25
SRMGLFRL | < -0.25
IDSGHYLT | < -0.25
SGVIVALRVVSTHGRRMRLK | < -0.25
FLQIVKRERHDGKMNFSRID | < -0.25
RRAAMVVTCRASVKPGLVSS | < -0.25
DLGGFHEKSF | < -0.25
EQREG | < -0.25
PRRGTHLSDRDEGRLWIVLS | < -0.25
RRVRGDCLIQVTIHLDGTSV | < -0.25
PKQPERLQSDEYLSKPGMSG | < -0.25
DGIADVTHETWVQLARRMG | < -0.25
FFWEPKESDRRYWIKQQSRR | < -0.25
ARRSTVGRFRSIQSHPGAMH | < -0.25
MKFH | < -0.25
KHLGMGNVMHKCENFHVKIG | < -0.25
RSALRR | < -0.25
YELHGGTVSRSRDLGSGSRV | < -0.25
KNTNLSRTVQPGTVLDYCTG | < -0.25
AAAKICPIPRLIPALGLRFH | < -0.25
IVKNVARLQEPSSQI | < -0.25

Individual results from the entries so far.
growth estimate, PKQPERLQSDEYLSKPGMSG reads < -0.25
growth estimate, RSALRR reads < -0.25
growth estimate, WAV reads < -0.25
growth estimate, IDSGHYLT reads < -0.25
growth estimate, KHLGMGNVMHKCENFHVKIG reads < -0.25

(cont.)

Substance | growth estimate
GQFRPIYEVMDAVVGSVRPS | < -0.25
VLPFTYAVHPQY | -0.245
QMDDGSACDG | < -0.25
VGTSPRVA | < -0.25
LNHIGWQFRVALSAWLASSR | < -0.25
IVLPIWSEDVLNSKMNEPG | < -0.25
KVFYVACSLHLDLDAVNYRK | < -0.25
KDYCTSSRNPGWVYCGETLT | < -0.25
RAQPVQCLDWFQTNVTGTKY | < -0.25
AAFQ | < -0.25
DCEGKYSMGSLDLSGQLRVR | < -0.25
NHPRRAHSIKKLSGYGHALI | < -0.25
HLPTIKHRSEIPNQAPTLTA | < -0.25
PGFVSPIVDSLSLHVGSVAP | < -0.25
HCEFNFSTSADPKRLMERRP | < -0.25
GSILVAMANASVYFFAVKRW | < -0.25
EPQRY | < -0.25
RSGEVLPMPSRSHASDIPLA | < -0.25
VSTSHLTDSKVMFEFDPYAR | < -0.25
CGLGSVAPLPAGSSHR | < -0.25
ANWACTRRTGELSWVGHGGL | < -0.25
KVKILWPKGRPHVGTANWST | < -0.25
DPRRTKRVLCPVHT | < -0.25
PGRELGVL | < -0.25
QAQVDGWVSLSLRS | < -0.25
SQSKHVGVAPRPPRDPGTVR | < -0.25

Substance | growth estimate
PIRVCLV | < -0.25
CYSLGLGGGRQVRLLCHRGA | < -0.25
SQLCTTAQMKCSAVTFFGIP | < -0.25
QGFHLGGIGNVEDFVISVTV | < -0.25
GWNSPPPKMKRRLLGHRVAR | < -0.25
RGDVTGLANRRVLNLCRNRP | < -0.25
TRIVYHNVWE | -0.145
LMHAVCDEEIDAKWRGVFKA | < -0.25
SGHGWVHLVFETLDPRF | < -0.25
QVPLEKADKNYVGGHTLRGT | < -0.25
LPLLERAGGDPRCRNRRVCR | < -0.25
AASVIGSFGSL | < -0.25
DAD | < -0.25
AEQWTAAVLAEMQESSVPLR | < -0.25
ATDCLAPLAASGCLNLATCS | < -0.25
HAIRPACGPGSQIVSLMGVE | < -0.25
TDWSQLSVAVLRAHYTLFAN | < -0.25
ILW | < -0.25
REPIISEKTALVHNTQSNTD | < -0.25
VPEQT | < -0.25
SLGGPQWTS | < -0.25
PRPSH | < -0.25
VRQRFMNHLNFKRPFDTVRV | < -0.25
KEWMTRQRSGRSNN | < -0.25
RRLPLIRKAE | < -0.25
RKLVFSAIELNPAVEKQA | < -0.25

Substance | growth estimate
HKCPATVMVESIGHLPPASG | -0.246
PTPP | < -0.25
NLEWIIEKGPCS | < -0.25
VLQIRIRSMRKKSRD | -0.243
FMVSARPMTGFSSPPGRDGT | -0.245
VKRCMAN | < -0.25
HNLS | < -0.25
ITRFA | < -0.25
GAVYCK | < -0.25
SGISQSVWGHRQFCGQTSSL | < -0.25
WCT | < -0.25
KTVDIGY | < -0.25
RYLDLLYLKGDSDIRARPSR | < -0.25
VGTFRYACRGTYGWLSVRAY | < -0.25
GASTIVPKSAEETNTLRGPA | < -0.25
RQTDNNRGTRQKL | < -0.25
SGDSQQGIGVRITKLGV | < -0.25
EKDLIIELASCGHHLF | < -0.25
LAEIMGALRCHHLM | < -0.25
CFISTLPWCGFYQGEPPGTG | -0.237
LVEGYVTF | < -0.25
GRGSRHRVKLLASCHTFYAH | < -0.25
FGQGKRSSLRNDARRGTLCP | < -0.25
RTSDLRSLSPRGQFARYSAS | < -0.25
PGRATPLVSSPHKGVPDIRF | < -0.25
DESASRRRTTPCRVLETEHG | < -0.25

Substance | growth estimate
RWSVLVSVTCCEVKGTYPIY | < -0.25
NPGERSDARRSQLPIRYSRH | < -0.25
HRHIALDRVIRAIPPTPLLL | < -0.25
GTGAKSVGKPVYHWEPHASD | < -0.25
SSSHGKRLPN | -0.226
GKGADPQHSARRCSNLGNVY | -0.231
LQAENALPPIVGPLTGIEHR | -0.179
VVKSATRADVNSGGRESKSE | < -0.25
RNKVISLAMKRPRQGEHLSF | < -0.25
SVRALGLRSRLHRQPPDEEV | < -0.25
PEG | < -0.25
FSKQFVQGVIIRMERAYALW | < -0.25
AGRGCL | < -0.25
LRREK | < -0.25
HVETEQCCSYGVPNNRTSVS | < -0.25
DLRIDINFLAFCVPSIYGFD | -0.243
ACSPRYGEPPA | < -0.25
TMRGIGSQLDSLLSMELGEE | < -0.25
VVPEIEEI | < -0.25
GYT | < -0.25
DPGDFWIRGSRSHFTGANVP | < -0.25
TGYSNPLQLIRWKGVR | < -0.25
GQCIATICGPCGNPELSW | < -0.25
QTLRHM | < -0.25
TFPHMDARFWFNIPVVSVRP | < -0.25
LQVRFRNIVEANVACHRVVD | < -0.25

3 records picked at random from those above, as already listed:
Substance | growth estimate
DLRIDINFLAFCVPSIYGFD | -0.243
HVETEQCCSYGVPNNRTSVS | < -0.25
GQCIATICGPCGNPELSW | < -0.25

(cont.)

Substance | growth estimate
AARLPHSDSRLPVQSSGIGG | < -0.25
KLQRVLSCALRSPDEGKDLC | < -0.25
LRCYRNTANIGLFVTGSQRR | < -0.25
TAIRASEVLTRFVGIFRLFD | < -0.25
SVIIIPSCHIFRAAYRSSRQ | < -0.25
QLASQIYGTWP | < -0.25
SCMWLRTIVGSCQGI | < -0.25
QRFLEFGGT | < -0.25
MHIVSKWETCTVLTVIIQCT | < -0.25
QYGSIYLFKESLA | < -0.25
GGCWLSALEPIIKQESAGP | < -0.25
ETPIGVFGLCKRHFERHLLV | < -0.25
TWDLTFSCTDSQ | -0.237
GTTFVLQSNKNDLF | < -0.25
SSLSKHPTVSGSYRVAECTV | < -0.25
MQESVHIETFICEEL | < -0.25
NSKGKGIRQPTLMPRSLSAV | < -0.25
SQSITATGLSWGQGGTWGRA | < -0.25
SGVVLVCGGRDYIIMIWE | < -0.25
MVLSGSLARVVSRSVGLSAL | -0.219
HFT | < -0.25
TDKSQGRQTCSSLSVRRSLA | < -0.25
AGSGPYAKCTRAASRIRASL | < -0.25
FVKSPCSSRFRFTAGPNPRI | < -0.25
